According to patent publication US20210017231A1, “ATP1A1-TARGETING POLYPEPTIDE AND USE THEREOF” (SUN YAT-SEN UNVIERSITY CANCER CENTER (SYSUCC), priority 2017, published 2021):
Part of at least one peptide drawing is inferred or uncertain, most often the ends. Bridge positions count the residues as written; N and C are the ends. Peptide text beside a SMILES is read from it. * marks the point of attachment. Biotin = O=C1N[C@H]2[C@H](CS[C@H]2CCCCC(=O)*)N1

System: human breast cancer MDA-MB-231 cells
Test: Confocal laser scanning microscopy (immunofluorescence) of biotin peptide binding to cells
Format: cell-based
Details: 200 μg/well, 37° C. 2 h, FIG. 1D
Source text: The binding of Biotin-C (Biotin-SEQ ID NO:2) and Biotin-S3 (Biotin-SEQ ID NO:1) polypeptide to human breast cancer MDA-MB-231 cells was detected by confocal laser scanning microscopy. Meanwhile, the inventors compared it with the binding of the above polypeptides to human normal breast MCF-10A cells. The particular experimental procedure was as follows:
1) digesting cells with trypsin and plating the cells in a 24-well plate provided with a slide, 1×10^5/well;
2) adding Biotin-C (Biotin-SEQ ID NO:2), Biotin-S3 (Biotin-SEQ ID NO:1) polypeptide to the cells, 200 μg/well, and incubating at 37° C. for 2 h;
3) discarding the cell incubation solution;
4) fixing the cells with 4% paraformaldehyde for 10 min;
5) washing five times with 0.1% PBST, 500 μl/well, and washing off unbound polypeptides;
6) destroying the membranes with 0.1% Triton, and washing once with PBST, 500 μl/well;
7) blocking with 5% BSA, 30 min;
8) adding anti-Biotin Streptavidin (1:1000) into the wells, and incubating at 4° C. for 12 h;
9) washing three times with 0.1% PBST, 5 min/time;
10) adding anti-Streptavidin conjugated FITC (1:1000) into the wells, and incubating at room temperature for 45 min;
11) washing three times with 0.1% PBST, 5 min/time;
12) staining cell membranes with WGA (1:1000), and incubating at room temperature for 10 min;
13) washing three times with 0.1% PBST, 5 min/time; […]

## CC[C@H](C)[C@@H]1NC(=O)[C@H](CO)NC(=O)[C@@H](NC(=O)CCCC[C@@H]2SC[C@@H]3NC(=O)N[C@@H]32)CSSC[C@@H](C(=O)O)NC(=O)[C@H](Cc2c[nH]cn2)NC(=O)[C@H]([C@@H](C)O)NC(=O)[C@H](CC(C)C)NC(=O)[C@H](CO)NC(=O)[C@H](CO)NC1=O [Biotin-S3, Biotin-CSISSLTHC] (Biotin-CSISSLTHC-OH; disulfide 1-9)
  binding to the surfaces of the cell membranes (immunofluorescence): can bind to the surfaces of the cell membranes
